Experimental data from patent US20230103644A1, “TREATMENT OF EPILEPSY” (Katholieke Universiteit Leuven, priority 2020, published 2023).
Some results were stated once for a whole list of compounds, not compound by compound.

Target: T1, human Phgdh (Homo sapiens, UniProt O43175)
T1 construct: purchased BPS bioscience 71079
T1 sequence (O43175 1-533): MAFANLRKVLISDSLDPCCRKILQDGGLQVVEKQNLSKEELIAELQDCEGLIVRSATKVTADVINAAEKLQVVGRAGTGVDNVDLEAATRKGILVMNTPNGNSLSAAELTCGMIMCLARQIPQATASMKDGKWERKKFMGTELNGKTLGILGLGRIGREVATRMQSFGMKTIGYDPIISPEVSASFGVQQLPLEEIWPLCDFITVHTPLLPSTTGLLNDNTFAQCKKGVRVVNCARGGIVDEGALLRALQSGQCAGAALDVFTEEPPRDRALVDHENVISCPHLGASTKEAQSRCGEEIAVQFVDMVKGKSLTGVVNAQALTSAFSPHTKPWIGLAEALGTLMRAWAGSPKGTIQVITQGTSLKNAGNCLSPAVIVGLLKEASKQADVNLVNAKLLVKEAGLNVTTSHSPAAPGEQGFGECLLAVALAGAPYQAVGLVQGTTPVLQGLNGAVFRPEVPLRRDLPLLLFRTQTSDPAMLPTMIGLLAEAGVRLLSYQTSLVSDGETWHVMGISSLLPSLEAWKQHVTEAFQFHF
Experiment: Phgdh activity assay (colorimetric kit, NADH at 450 nm)
Format: biochemical
Details: 25 μM compound, 0.35 μM enzyme, activity over time at 37° C.
Protocol: Phgdh enzyme activity upon drug treatment was tested using human Phgdh (BPS bioscience, 71079) and a specific colorimetric Phgdh activity kit (Biovision, K569). The Phgdh inhibitor Disulfiram [Spillier et al. (2019) Sci Rep. 9, 4737], served as […].
Briefly, Human Phgdh enzyme was diluted in assay buffer at a concentration of 0.38 mg/mL. Next, 5 μl of this Phgdh enzyme solution and 5 μL of the compounds in 5% DMSO and assay buffer was added (to wells of flat bottom 96-well plate). Subsequently, 40 μl Phgdh assay buffer (Biovision) and 50 μl Phgdh reaction mix (prepared as described in the protocol of the Phgdh assay kit K569, Biovision) was added. The final amount of enzyme per reaction was 0.35 μM. Afterwards, absorbance at 450 nm, indicative for the amount of NADH generated, was measured over time. NADH is one of the end products of the reaction. In between measurements, the plate was incubated at 37° C., protected from light.

SMILES | increased Phgdh activity as compared to DMSO control
Oc1c(Br)cc(Br)c2cccnc12 [broxyquinoline] | 70-80%
Oc1c(I)cc(Cl)c2cccnc12 [clioquinol] | 70-80%
